In assay [1] the target is 3xFLAG-tagged TAF12L (C. albicans). The assay can be described thus: affinity purification with mass spectrometry; anti-FLAG M2 affinity agarose on cell lysate in H350 buffer (25mM HEPES-KOH pH 7.5, 350mM KCl), 4°C, eluted with 3xFLAG peptide; MudPIT; untagged SN87 as control.
In assay [2] the target is T1, TAF11-TAP (C. albicans) (UniProt Q59SU6).
T1 sequence: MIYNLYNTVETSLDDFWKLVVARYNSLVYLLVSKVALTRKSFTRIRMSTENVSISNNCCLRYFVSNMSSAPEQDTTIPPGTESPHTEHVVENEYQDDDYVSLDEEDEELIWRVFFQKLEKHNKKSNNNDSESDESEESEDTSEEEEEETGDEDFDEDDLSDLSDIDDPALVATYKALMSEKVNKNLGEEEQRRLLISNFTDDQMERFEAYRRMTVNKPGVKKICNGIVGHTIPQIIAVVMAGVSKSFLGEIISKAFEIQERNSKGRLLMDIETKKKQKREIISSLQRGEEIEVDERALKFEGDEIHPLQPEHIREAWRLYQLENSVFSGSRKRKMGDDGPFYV
Description: affinity purification with mass spectrometry; two-step TAP purification: IgG-Sepharose in TAP extraction buffer (350mM NaCl), TEV cleavage, calmodulin-Sepharose, EGTA elution; MudPIT; untagged SN87 as control.

The chains behind the UniProt entries cited, without tags or fusion partners.
UniProt A0A1D8PSS1: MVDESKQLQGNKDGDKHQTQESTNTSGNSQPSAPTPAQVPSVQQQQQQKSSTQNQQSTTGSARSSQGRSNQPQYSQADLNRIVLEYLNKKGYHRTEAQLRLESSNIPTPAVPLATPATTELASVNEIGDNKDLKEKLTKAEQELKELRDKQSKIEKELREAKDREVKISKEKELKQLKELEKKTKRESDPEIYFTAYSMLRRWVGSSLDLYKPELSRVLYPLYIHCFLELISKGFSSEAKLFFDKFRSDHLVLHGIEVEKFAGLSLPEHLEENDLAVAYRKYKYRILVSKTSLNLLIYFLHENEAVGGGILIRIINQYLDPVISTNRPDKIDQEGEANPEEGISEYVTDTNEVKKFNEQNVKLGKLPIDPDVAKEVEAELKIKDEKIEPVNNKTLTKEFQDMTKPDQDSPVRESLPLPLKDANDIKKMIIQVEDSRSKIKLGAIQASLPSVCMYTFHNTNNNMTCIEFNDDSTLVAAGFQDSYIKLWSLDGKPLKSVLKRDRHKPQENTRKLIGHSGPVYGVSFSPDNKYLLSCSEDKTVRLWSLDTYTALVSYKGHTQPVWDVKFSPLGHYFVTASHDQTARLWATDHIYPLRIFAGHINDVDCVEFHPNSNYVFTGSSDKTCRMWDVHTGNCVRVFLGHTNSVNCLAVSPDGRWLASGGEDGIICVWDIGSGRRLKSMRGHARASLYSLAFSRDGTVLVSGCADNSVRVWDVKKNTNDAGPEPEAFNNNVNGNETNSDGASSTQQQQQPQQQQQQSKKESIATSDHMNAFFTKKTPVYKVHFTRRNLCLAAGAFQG
UniProt A0A1D8PNT2: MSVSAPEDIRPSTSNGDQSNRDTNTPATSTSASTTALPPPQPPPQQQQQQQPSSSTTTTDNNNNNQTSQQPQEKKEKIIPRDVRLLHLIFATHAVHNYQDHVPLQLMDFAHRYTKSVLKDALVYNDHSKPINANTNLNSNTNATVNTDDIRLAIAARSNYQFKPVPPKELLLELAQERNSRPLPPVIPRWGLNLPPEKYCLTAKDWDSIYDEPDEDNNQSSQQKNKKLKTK
UniProt A0A1D8PSN1: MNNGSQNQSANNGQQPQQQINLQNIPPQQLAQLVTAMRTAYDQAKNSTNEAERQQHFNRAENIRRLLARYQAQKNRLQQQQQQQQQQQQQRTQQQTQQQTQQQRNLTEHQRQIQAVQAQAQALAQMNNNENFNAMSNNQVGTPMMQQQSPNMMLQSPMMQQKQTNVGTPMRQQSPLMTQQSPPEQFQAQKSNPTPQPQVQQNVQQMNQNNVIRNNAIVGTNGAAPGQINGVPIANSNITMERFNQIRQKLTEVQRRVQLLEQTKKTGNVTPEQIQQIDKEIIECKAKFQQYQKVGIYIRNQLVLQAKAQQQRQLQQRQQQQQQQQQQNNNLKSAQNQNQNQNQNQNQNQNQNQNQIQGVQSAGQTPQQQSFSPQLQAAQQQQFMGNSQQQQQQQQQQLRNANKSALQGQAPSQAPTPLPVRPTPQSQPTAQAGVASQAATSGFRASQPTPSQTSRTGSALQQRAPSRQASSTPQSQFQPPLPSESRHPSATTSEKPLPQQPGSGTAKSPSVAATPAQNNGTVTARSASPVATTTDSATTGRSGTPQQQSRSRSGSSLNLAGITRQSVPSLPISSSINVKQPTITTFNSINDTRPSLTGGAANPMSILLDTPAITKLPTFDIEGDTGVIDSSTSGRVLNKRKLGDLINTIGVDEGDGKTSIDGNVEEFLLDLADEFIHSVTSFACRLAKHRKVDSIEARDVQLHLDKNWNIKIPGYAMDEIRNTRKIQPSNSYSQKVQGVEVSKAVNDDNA

Assay [3] deals with T2, TBP-TAP (C. albicans) (UniProt O43133).
T2 sequence: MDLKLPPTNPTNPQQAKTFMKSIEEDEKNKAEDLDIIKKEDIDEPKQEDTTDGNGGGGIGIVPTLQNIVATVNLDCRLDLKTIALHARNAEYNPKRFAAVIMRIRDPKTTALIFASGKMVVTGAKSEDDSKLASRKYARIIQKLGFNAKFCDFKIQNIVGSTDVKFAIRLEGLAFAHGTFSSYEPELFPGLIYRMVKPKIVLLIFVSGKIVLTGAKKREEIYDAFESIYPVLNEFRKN
The assay is described as above.

This passage reports binding results from doi:10.1101/2025.06.23.660276.

Results are given in words; binding and its absence hold for the method and conditions named. In cells and extracts the contact can be indirect. A yes stands for co-enrichment or nearness to the bait. Other partners may have been found. For some of these results: No binding means not detected with the bait.

For the substance TAF5 (from UniProt A0A1D8PSS1 1-798), in assay [1], the binding result was “binds”.

Take TAF9 (from UniProt A0A1D8PNT2 1-231): the binding result in assay [1] is listed as “binds”.

Turning to TAF12L (from UniProt A0A1D8PSN1 1-750), the binding entry in assay [2] and in assay [3] was “no binding” in each case.
